Experimental data published in US20260266848A1, “COMPOSITIONS AND METHODS FOR DIAGNOSING AND TREATING DYSTONIA” (Duke University, priority 2023, published 2026).

Chains of the proteins cited; added tags and fusions are not shown. Lines headed by an entry give the natural chain unless they say otherwise; changes in a name come on top.
UniProt P26350: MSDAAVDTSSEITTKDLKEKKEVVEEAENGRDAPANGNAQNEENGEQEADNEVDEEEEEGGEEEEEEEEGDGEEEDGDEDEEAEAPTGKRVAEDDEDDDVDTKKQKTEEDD

How the values were obtained:
[1] = tested on: DYT1 patient plasma derived EVs; assay: Plasma-derived EV proteomics (ExoQuick ULTRA, DIA LC/MS/MS), DYT1 vs Healthy Controls; parameters: species or system human; details: for Mean DYT1 / Mean HC: protein abundance; for Mean DYT1: DYT1 patients; for Mean HC: healthy controls (HC); for Log2FC: DYT1 patients as compared to healthy controls; for Directionality / Log2_FC: Hs. Plasma EVs (DYT1/WT); for Log2_FC: protein level, human patient derived EVs by genotype; for Hs. Plasma EVs (DYT1/WT): directionality of protein change, human plasma derived EVs, DYT1 vs WT(HC)
Experimental: Data was obtained for extracellular vesicles using previously acquired samples. The ExoQuick® ULTRA EV Isolation System was used to fractionate and enrich EVs from plasma. Isolated plasma EV samples were then submitted to proteomic analysis by the Duke Proteomics and Metabolomics Core Facility (DPMCF). At the DPMCF, quantitative (LC/MS/MS) was performed on 500 ng of each sample, using an EvoSep One UPLC system coupled to a Thermo Orbitrap Astral high-resolution accurate mass tandem mass spectrometer (Thermo). Briefly, the sample was eluted directly from an Evotip which was subjected to a low organic wash and then subjected to an analytical separation using a 1.7 μm EvoSep 150 um ID×15 cm endurance (EveoSep) column running an SPD30 gradient from approximately 5 to 30% acetonitrile with 0.1% formic acid with a column temperature of 50 C. Data collection on the Orbitrap Astral mass spectrometer was performed in a data-independent acquisition (DIA) mode of acquisition with a r=240,000 (@m/z 200) full MS scan from m/z 380-980 with a target AGC value of 4e5 ions. Fixed DIA, windows of 4 m/z from m/z 380 to 980 DIA MS/MS scans were acquired in the Astral with a target AGC value of 5e4 and a max fill time of 6 ms. HCD collision energy setting of 27% was used for all MS2 scans.

DYT-TOR1A MEF EVs [2] = assay: Quantitative LC-MS/MS proteomics of MEF EVs, DYT-TOR1A genotype vs WT; format: cell-based, mouse; details: Directionality of protein change in MEFs EV dataset between WT and DYT1 derived MEFs
WT MEF EVs = assay: Quantitative LC-MS/MS proteomics of EVs from ISRIB-treated WT MEF cultures; format: cell-based, mouse; details: Directionality of protein change in MEFs EV dataset in WT derived MEFs treated with ISRIB
DYT-TOR1A MEF EVs [3] = assay: Quantitative LC-MS/MS proteomics of EVs from drug-treated DYT-TOR1A MEF cultures (ritonavir, salubrinal); format: cell-based, mouse; details: for DYT1/DYT1 + RTV: Directionality of protein change in MEFs EV dataset in DYT1 derived MEFs treated with Ritonavir; for DYT1/DYT1 + Sal: Directionality of protein change in MEFs EV dataset in DYT1 derived MEFs treated with salubrinal; for RTV Corrective Direction: Ritonavir; for RTV Corrective Direction / Sal Corrective Direction: was treatment in MEF's in the direction of WT-like?; for Sal Corrective Direction: Salubrinal

## TUBA1B
[1]
  Mean DYT1: 10.079
  Mean HC: 9.36

## FGL1
[1]
  Mean DYT1: 7.153
  Mean HC: 7.97

## Tardbp
DYT-TOR1A MEF EVs [2]
  DYT1/WT: DOWN
WT MEF EVs
  WT + ISRIB/WT: DOWN
DYT-TOR1A MEF EVs [3]
  DYT1/DYT1 + RTV: DOWN
  DYT1/DYT1 + Sal: DOWN
  RTV Corrective Direction: Yes
  Sal Corrective Direction: Yes

## Pcmt1
DYT-TOR1A MEF EVs [2]
  DYT1/WT: DOWN
WT MEF EVs
  WT + ISRIB/WT: DOWN
DYT-TOR1A MEF EVs [3]
  DYT1/DYT1 + RTV: DOWN
  DYT1/DYT1 + Sal: DOWN
  RTV Corrective Direction: Yes
  Sal Corrective Direction: Yes

## PI4KA
[1]
  Log2FC: −0.2654
  Directionality: DOWN
  Log2_FC: -0.2654
  Hs. Plasma EVs (DYT1/WT): DOWN
  Mean DYT1: 11.703
  Mean HC: 11.97

## TLN1
[1]
  Log2_FC: 1.171
  Mean DYT1: 8.739
  Mean HC: 7.57

## SOGA1
[1]
  Mean DYT1: 9.962
  Mean HC: 11.58

## Flna
DYT-TOR1A MEF EVs [2]
  DYT1/WT: DOWN
WT MEF EVs
  WT + ISRIB/WT: DOWN
DYT-TOR1A MEF EVs [3]
  DYT1/DYT1 + RTV: DOWN
  RTV Corrective Direction: Yes
  Sal Corrective Direction: No

## TGFB2
[1]
  Log2FC: −0.9952
  Directionality: DOWN
  Log2_FC: -0.9952
  Hs. Plasma EVs (DYT1/WT): DOWN
  Mean DYT1: 4.406
  Mean HC: 5.40

## VWF
[1]
  Mean DYT1: 14.625
  Mean HC: 15.47

## Pi4ka
DYT-TOR1A MEF EVs [3]
  RTV Corrective Direction: Yes
  Sal Corrective Direction: Yes

## Psmc5
DYT-TOR1A MEF EVs [2]
  DYT1/WT: DOWN
WT MEF EVs
  WT + ISRIB/WT: DOWN
DYT-TOR1A MEF EVs [3]
  DYT1/DYT1 + RTV: DOWN
  DYT1/DYT1 + Sal: DOWN
  RTV Corrective Direction: Yes
  Sal Corrective Direction: Yes

## Psme4
DYT-TOR1A MEF EVs [2]
  DYT1/WT: DOWN
WT MEF EVs
  WT + ISRIB/WT: DOWN
DYT-TOR1A MEF EVs [3]
  DYT1/DYT1 + RTV: DOWN
  RTV Corrective Direction: Yes
  Sal Corrective Direction: No

## AGL
[1]
  Mean DYT1: 6.109
  Mean HC: 6.61

## PCMT1
[1]
  Directionality: DOWN
  Log2_FC: -0.693
  Hs. Plasma EVs (DYT1/WT): DOWN
  Mean DYT1: 3.811
  Mean HC: 4.50

## WNK1
[1]
  Mean DYT1: 1.769
  Mean HC: 2.63

## DLST
[1]
  Log2FC: −1.0854
  Directionality: DOWN
  Log2_FC: -1.085
  Hs. Plasma EVs (DYT1/WT): DOWN
  Mean DYT1: 5.753
  Mean HC: 6.84

## SETD2
[1]
  Mean DYT1: 8.990
  Mean HC: 10.52

## TARDBP
[1]
  Directionality: DOWN
  Log2_FC: -1.21
  Hs. Plasma EVs (DYT1/WT): DOWN
  Mean DYT1: 3.697
  Mean HC: 4.91

## PSME4
[1]
  Directionality: DOWN
  Log2_FC: -0.8792
  Hs. Plasma EVs (DYT1/WT): DOWN
  Mean DYT1: 7.365
  Mean HC: 8.24

## ITGA2B
[1]
  Log2FC: 1.3017
  Mean DYT1: 10.153
  Mean HC: 8.85

## Tln1
DYT-TOR1A MEF EVs [2]
  DYT1/WT: DOWN
WT MEF EVs
  WT + ISRIB/WT: DOWN
DYT-TOR1A MEF EVs [3]
  DYT1/DYT1 + RTV: DOWN
  RTV Corrective Direction: Yes
  Sal Corrective Direction: No

## DLD
[1]
  Mean DYT1: 3.942
  Mean HC: 4.81

## STOM
[1]
  Log2FC: 1.3063
  Log2_FC: 1.306
  Mean DYT1: 8.193
  Mean HC: 6.89

## Myh9
DYT-TOR1A MEF EVs [2]
  DYT1/WT: DOWN
DYT-TOR1A MEF EVs [3]
  RTV Corrective Direction: No
  Sal Corrective Direction: No

## MYH9
[1]
  Log2_FC: 0.6672
  Mean DYT1: 6.965
  Mean HC: 6.30

## ARL8B
[1]
  Directionality: DOWN
  Log2_FC: -1.423
  Hs. Plasma EVs (DYT1/WT): DOWN
  Mean DYT1: −0.118
  Mean HC: 1.31

## CLK3
[1]
  Mean DYT1: 10.306
  Mean HC: 10.50

## Arl8b
DYT-TOR1A MEF EVs [3]
  RTV Corrective Direction: Yes
  Sal Corrective Direction: No

## CRYAB
[1]
  Directionality: DOWN
  Log2_FC: -1.087
  Hs. Plasma EVs (DYT1/WT): DOWN
  Mean DYT1: 3.127
  Mean HC: 4.21

## HBA1
[1]
  Mean DYT1: 15.348
  Mean HC: 13.50

## Rhoa
DYT-TOR1A MEF EVs [2]
  DYT1/WT: DOWN
WT MEF EVs
  WT + ISRIB/WT: DOWN
DYT-TOR1A MEF EVs [3]
  DYT1/DYT1 + RTV: DOWN
  DYT1/DYT1 + Sal: DOWN
  RTV Corrective Direction: Yes
  Sal Corrective Direction: Yes

## GPR17
[1]
  Mean DYT1: 4.951
  Mean HC: 6.18

## Usp7
DYT-TOR1A MEF EVs [2]
  DYT1/WT: DOWN
WT MEF EVs
  WT + ISRIB/WT: DOWN
DYT-TOR1A MEF EVs [3]
  DYT1/DYT1 + RTV: DOWN
  DYT1/DYT1 + Sal: DOWN
  RTV Corrective Direction: Yes
  Sal Corrective Direction: Yes

## GOLGA4
[1]
  Mean DYT1: 11.154
  Mean HC: 10.24

## LAMA1
[1]
  Mean DYT1: 3.504
  Mean HC: 4.57

## MKI67
[1]
  Mean DYT1: 7.413
  Mean HC: 9.49

## DNAH2
[1]
  Log2FC: −0.7484
  Mean DYT1: 7.827
  Mean HC: 8.58

## SPTB
[1]
  Mean DYT1: 6.706
  Mean HC: 5.61

## PSMC5
[1]
  Directionality: DOWN
  Log2_FC: -0.5986
  Hs. Plasma EVs (DYT1/WT): DOWN
  Mean DYT1: 4.508
  Mean HC: 5.11

## ATRIP
[1]
  Mean DYT1: 10.249
  Mean HC: 10.86

## Tln2
DYT-TOR1A MEF EVs [2]
  DYT1/WT: DOWN
WT MEF EVs
  WT + ISRIB/WT: DOWN
DYT-TOR1A MEF EVs [3]
  DYT1/DYT1 + RTV: DOWN
  RTV Corrective Direction: Yes
  Sal Corrective Direction: No

## FAM98A
[1]
  Mean DYT1: 1.241
  Mean HC: 2.94

## FLNA
[1]
  Log2_FC: 1.127
  Mean DYT1: 8.016
  Mean HC: 6.89

## RHOC
[1]
  Mean DYT1: 6.044
  Mean HC: 5.12

## MAPK3
[1]
  Directionality: DOWN
  Log2_FC: -0.9403
  Hs. Plasma EVs (DYT1/WT): DOWN
  Mean DYT1: 3.577
  Mean HC: 4.52

## CEP170
[1]
  Mean DYT1: 3.627
  Mean HC: 2.36

## Mapk3
DYT-TOR1A MEF EVs [2]
  DYT1/WT: DOWN
WT MEF EVs
  WT + ISRIB/WT: DOWN
DYT-TOR1A MEF EVs [3]
  DYT1/DYT1 + RTV: DOWN
  DYT1/DYT1 + Sal: DOWN
  RTV Corrective Direction: Yes
  Sal Corrective Direction: Yes

## RHOA
[1]
  Log2_FC: 0.5465
  Mean DYT1: 6.529
  Mean HC: 5.98

## PRSS1
[1]
  Log2FC: −0.3818
  Mean DYT1: 10.851
  Mean HC: 11.23

## HBD
[1]
  Mean DYT1: 10.966
  Mean HC: 9.30

## ANK1
[1]
  Log2FC: 1.3159
  Mean DYT1: 5.232
  Mean HC: 3.92

## TLN2
[1]
  Directionality: DOWN
  Log2_FC: -1.218
  Hs. Plasma EVs (DYT1/WT): DOWN
  Mean DYT1: 4.909
  Mean HC: 6.13

## Ptma (SDAAVDTSSEITTKDLKEKKEVVEEAEN; UniProt P26350 2-29, looked up)
DYT-TOR1A MEF EVs [3]
  DYT1/DYT1 + Sal: DOWN
  RTV Corrective Direction: Yes
  Sal Corrective Direction: No
